Data published in paper PMC8468827.
Results are given in words; binding and its absence hold for the method and conditions named. Binding seen in cells or lysates may run through a third protein. Here binding means that the protein was enriched with, or labelled near, the bait; the list need not be complete.

Protein sequences, listed by entry. Tags and fused reporters are not part of them.
UniProt Q9VQ93: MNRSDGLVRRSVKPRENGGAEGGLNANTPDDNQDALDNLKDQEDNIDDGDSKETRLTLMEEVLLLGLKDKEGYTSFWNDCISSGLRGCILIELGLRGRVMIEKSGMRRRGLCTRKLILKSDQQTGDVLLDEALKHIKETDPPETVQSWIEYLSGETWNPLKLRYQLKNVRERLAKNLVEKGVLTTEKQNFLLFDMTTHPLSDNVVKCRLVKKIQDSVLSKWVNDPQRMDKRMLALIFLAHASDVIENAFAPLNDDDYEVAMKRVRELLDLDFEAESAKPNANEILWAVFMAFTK

B1: Cog7 (protein, UniProt Q9VAD6 1-742)
chain: MDVSALSETTFSPAEWINANYKKFVEENGRDDSEAASAFIRSYVAKLQLYIFNVNNAVEESSRQVVASMPRIAKESAALQADVHRLQEKMSAMRLEVAAVQSETGECMATLERLNTKSQKLQVAKESLQESDGWGNLLAELEDGFERNDLKGVCDKLIALQKSLHAQEQLPGHAERQTQVEDFKNRLEALASPSVVQCFAEGNTEQAQHFVQIFTSIQRLPQLQQYYRAVQKNFWQQQWKQTLELQGTESQPQQQQFLTLYYDQLLEHCQRQVKWCSNLFGENSPQPFLVIAELLPALQPTRDAHILQLLKTSNERLEMLALFAKVNHSFVLHLNSLLEQSHITLSEELHRLLGEAIFEYFHKFIQQYPRLEETQLSTQVDRLSSNQATPSDGVRHLEESTRKLYEWLKEACERCASITSDLALCKLITLLNGIFKRQLESFGRIQRQIGLSLGSSSYAAQSENWSLLQYTMSQLQCLADFQVQLHQFEQDLHTRMVMLSNRLTKPSNRGPITIFQTCDHAARTQLLNSIADYQQKKSEATDSLGIFPQIYATLKSHFADTHDITLNILLQPIETHLAHIRPPVQDHAASGIEMPSFSFAPQESITQIGQYLLTLPQHLEPLLLSPSSLLKQALEVCNIKYTQAIPCADVLLSLVVEQCCVLYVTQILQIKSLPSSAATQLSVDIEYLSNVLEELGLSINLQLSQILTLLKAAPDQYLTLSSGCEPRLVTAIRQMRNIISTQ
B2: Rab32 (protein, UniProt A1Z7S3 1-686)
chain: MPNVDEQRGKAATKRAESEQSEEKGDRQEGDGDPKDESEEATAKIKGRSRFTAALRSLSKTKTKRERELDKSTDRETRSAEEEAQETPGELEDVASSISTDSGALGKTKKKSLTRRLLLGGLRKSGKTPKGRPHSLATSDDISVEHLETTPLPSPPGSPTSAGSSTLQITISGKKVEPSPAKKSGKSRPKSDTDYLTPAAEERKPRKKTTTTTVTTRDTSSSTRTTKLLVSKKKPQSPERESPSASPSPLITTTESTRDTPPRERAPAKPSRVQSASGTGAVRKSQSSSASSRKLELMQQQQQRGHRLNARPLAELANTEPQPSGQQSLDPSTSPPAAEDGVSSAESAQTIANPPPVVRFEVGSAVRSPLSAYEAALAAAASQQPNSNEELSDSSIRRLSFAQQQLILGDHDSIEGRRETLHYQSVASEYSNQDSGSEDDSEEQADTTEPENAKPMPAFGDLTMDQEMEPAIMTSTSDKREHLYKILVIGELGTGKTSFIKRYVHQFFSQNYRATIGVDFALKVLQWDANTIVRLQLWDIAGQERFGNMTRVYYKEAVGAFIVFDVTRSGTFDCVSKWKEDLDSKVQLPDGSPIPCILLANKCDQEKQGIITQPEKMDEYVRENGFAGWFETSAKENINIDEAARALVNKILINDKLISADLADGDKFNLSAADATGSDAKNKCSC
B3: Rab5 (protein, UniProt Q9V3I2 1-219)
chain: MATTPRSGGASGTGTAQRPNGTSQNKSCQFKLVLLGESAVGKSSLVLRFVKGQFHEYQESTIGAAFLTQTICIEDTVVKFEIWDTAGQERYHSLAPMYYRGAQAAIVVYDIQNQDSFQRAKTWVKELHKQASPNIVIALAGNKADLSNIRVVEFDEAKQYAEENGLLFMETSAKTGMNVNDIFLAIAKKLPKNDGANNQGTSIRPTGTETNRPTNNCCK
B4: Rab10 (protein, UniProt O15971 1-204)
chain: MAKKTYDLLFKLLLIGDSGVGKTCILFRFSDDAFTSTFISTIGIDFKIKTVELRGKKIKLQIWDTAGQERFHTITTSYYRGAMGIMLVYDITNEKSFENIVKWLRNIDEHANEDVEKMILGNKCDMTDKRVVNKERGEAIAREHGIRFMETSAKSNINIERAFCELAEAILDKTSGRESAENQERVIIDRRNQEKAPGYSKCCA

Target: dGOLPH3-mRFP (Drosophila) (UniProt Q9VQ93)
Test: affinity purification with mass spectrometry; RFP-trap beads on lysate of 3000 adult testes expressing dGOLPH3-RFP (RFP alone as control); lysis buffer 25 mM Tris-HCl pH 7.4, 150 mM NaCl, 1 mM EDTA, 1% NP-40; washes at 4 °C; nanoLC-MS/MS

| Binder | binding |
| --- | --- |
| B1 | binds |
| B2 | binds |
| B3 | binds |
| B4 | binds |
